From patent publication EP1585727B1, “INDOLES USEFUL IN THE TREATMENT OF ANDROGEN-RECEPTOR RELATED DISEASES” (priority 2002, dated 2004)
At least one compound was matched to its structure with a doubt left.

Tested on: cytoplasmic human androgen receptor
Assay: Competitive binding to cytoplasmic human androgen receptor from recombinant CHO cells (relative binding affinity)
Settings: relative to DHT; cytosol of CHO-AR-pMMTV-LUC 1G12-A5-CA cells
Excerpt: Determination of competitive binding to cytoplasmic human androgen receptor from recombinant CHO cells is used to estimate the relative binding affinity (RBA) of a test compound for androgen receptors present in the cytosol prepared of the recombinant CHO cell-line, CHO-AR-pMMTV-LUC 1G12-A5-CA.

COc1ccc2c(Sc3ccccc3[N+](=O)[O-])cn(Cc3cc(F)cc(F)c3)c2c1 [Compound 63, 1-(3,5-Difluoro-benzyl)-6-methoxy-3-(2-nitro-phenylsulfanyl)-1H-indole]
relative binding affinity (RBA): > 1%
